Test results as given in article PMC4352044.
Numbering of substitutions follows the chain as printed. Results are given in words; binding and its absence hold for the method and conditions named. Binding seen in cells or lysates may run through a third protein. Some results given as binding are weak or reduced against the parent protein; the word gives no strength. Each block holds one binder with its values, some of them ahead of it.

How the values were obtained:
Assay in all cases: co-IP; anti-HA immunoprecipitation of Scc3-6HA (wild type or mutant) from yeast lysates, mid-log cells; IPH150 or IPH50 buffer (50 mM Tris pH 8.0, 150/50 mM NaCl, 5 mM EDTA, 0.5% NP-40, 1 mM DTT), 4°C, protein A/G agarose, Western blot of partners; also in wpl1Δ strains and after depletion of Pds5-3V5-AID with 1 mM IAA
Scc3-6HA (budding yeast) = biological target: T1, Scc3-6HA (budding yeast) (UniProt P40541)
T1 sequence: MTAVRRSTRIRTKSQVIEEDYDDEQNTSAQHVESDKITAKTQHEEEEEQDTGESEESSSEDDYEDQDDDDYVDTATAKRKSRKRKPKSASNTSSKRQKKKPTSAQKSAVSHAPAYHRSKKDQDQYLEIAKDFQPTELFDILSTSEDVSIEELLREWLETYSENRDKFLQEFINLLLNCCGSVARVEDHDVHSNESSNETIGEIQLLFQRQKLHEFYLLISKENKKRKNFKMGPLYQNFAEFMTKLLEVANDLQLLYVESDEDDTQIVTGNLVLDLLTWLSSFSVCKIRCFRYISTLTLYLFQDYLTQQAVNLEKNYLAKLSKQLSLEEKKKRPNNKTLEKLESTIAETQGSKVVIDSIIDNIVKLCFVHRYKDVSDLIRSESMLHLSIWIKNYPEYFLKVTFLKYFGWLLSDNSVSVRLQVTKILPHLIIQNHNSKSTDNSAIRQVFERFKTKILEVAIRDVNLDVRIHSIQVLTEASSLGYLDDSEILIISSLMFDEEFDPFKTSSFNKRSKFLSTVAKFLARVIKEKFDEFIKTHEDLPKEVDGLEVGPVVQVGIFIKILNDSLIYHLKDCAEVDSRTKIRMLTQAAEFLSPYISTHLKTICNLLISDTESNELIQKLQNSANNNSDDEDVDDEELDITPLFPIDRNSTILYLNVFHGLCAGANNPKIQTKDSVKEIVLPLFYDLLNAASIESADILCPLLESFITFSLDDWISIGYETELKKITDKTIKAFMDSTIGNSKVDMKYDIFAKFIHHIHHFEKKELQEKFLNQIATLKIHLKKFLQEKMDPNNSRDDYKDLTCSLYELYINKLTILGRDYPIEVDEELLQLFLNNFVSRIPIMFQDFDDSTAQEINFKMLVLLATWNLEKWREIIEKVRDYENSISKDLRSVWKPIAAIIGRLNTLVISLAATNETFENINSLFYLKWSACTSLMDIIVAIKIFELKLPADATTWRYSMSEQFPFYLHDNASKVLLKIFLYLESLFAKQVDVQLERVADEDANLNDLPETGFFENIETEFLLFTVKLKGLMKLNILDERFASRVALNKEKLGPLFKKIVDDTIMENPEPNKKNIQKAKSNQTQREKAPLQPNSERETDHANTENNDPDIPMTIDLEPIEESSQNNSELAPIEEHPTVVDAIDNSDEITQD

[1] = biological target: T2, scc3-Y371A-6HA (budding yeast) (UniProt P40541)
T2 sequence: T1 sequence with Y371A

[2] = biological target: T3, Scc3-6HA (budding yeast), P40541; settings: remark: other sources report otherwise
T3 chain: T1 sequence

binding (Scc3-6HA (budding yeast)): binds | binding [1]: binds
B1: Smc3 (protein, UniProt P47037 1-1230)
chain: MYIKRVIIKGFKTYRNETIIDNFSPHQNVIIGSNGSGKSNFFAAIRFVLSDDYSNLKREERQGLIHQGSGGSVMSASVEIVFHDPDHSMILPSGVLSRGDDEVTIRRTVGLKKDDYQLNDRNVTKGDIVRMLETAGFSMNNPYNIVPQGKIVALTNAKDKERLQLLEDVVGAKSFEVKLKASLKKMEETEQKKIQINKEMGELNSKLSEMEQERKELEKYNELERNRKIYQFTLYDRELNEVINQMERLDGDYNNTVYSSEQYIQELDKREDMIDQVSKKLSSIEASLKIKNATDLQQAKLRESEISQKLTNVNVKIKDVQQQIESNEEQRNLDSATLKEIKSIIEQRKQKLSKILPRYQELTKEEAMYKLQLASLQQKQRDLILKKGEYARFKSKDERDTWIHSEIEELKSSIQNLNELESQLQMDRTSLRKQYSAIDEEIEELIDSINGPDTKGQLEDFDSELIHLKQKLSESLDTRKELWRKEQKLQTVLETLLSDVNQNQRNVNETMSRSLANGIINVKEITEKLKISPESVFGTLGELIKVNDKYKTCAEVIGGNSLFHIVVDTEETATLIMNELYRMKGGRVTFIPLNRLSLDSDVKFPSNTTTQIQFTPLIKKIKYEPRFEKAVKHVFGKTIVVKDLGQGLKLAKKHKLNAITLDGDRADKRGVLTGGYLDQHKRTRLESLKNLNESRSQHKKILEELDFVRNELNDIDTKIDQVNGNIRKVSNDRESVLTNIEVYRTSLNTKKNEKLILEESLNAIILKLEKLNTNRTFAQEKLNTFENDLLQEFDSELSKEEKERLESLTKEISAAHNKLNITSDALEGITTTIDSLNAELESKLIPQENDLESKMSEVGDAFIFGLQDELKELQLEKESVEKQHENAVLELGTVQREIESLIAEETNNKKLLEKANNQQRLLLKKLDNFQKSVEKTMIKKTTLVTRREELQQRIREIGLLPEDALVNDFSDITSDQLLQRLNDMNTEISGLKNVNKRAFENFKKFNERRKDLAERASELDESKDSIQDLIVKLKQQKVNAVDSTFQKVSENFEAVFERLVPRGTAKLIIHRKNDNANDHDESIDVDMDAESNESQNGKDSEIMYTGVSISVSFNSKQNEQLHVEQLSGGQKTVCAIALILAIQMVDPASFYLFDEIDAALDKQYRTAVATLLKELSKNAQFICTTFRTDMLQVADKFFRVKYENKISTVIEVNREEAIGFIRGSNKFAEV

binding [2]: binds
B2: Pds5, Q04264 1-1277 (protein)
chain: MAKGAVTKLKFNSPIISTSDQLISTNELLDRLKALHEELASLDQDNTDLTGLDKYRDALVSRKLLKHKDVGIRAFTACCLSDILRLYAPDAPYTDAQLTDIFKLVLSQFEQLGDQENGYHIQQTYLITKLLEYRSIVLLADLPSSNNLLIELFHIFYDPNKSFPARLFNVIGGILGEVISEFDSVPLEVLRLIFNKFLTYNPNEIPEGLNVTSDCGYEVSLILCDTYSNRMSRHLTKYYSEIIHEATNDDNNSRLLTVVVKLHKLVLRLWETVPELINAVIGFIYHELSSENELFRKEATKLIGQILTSYSDLNFVSTHSDTFKAWISKIADISPDVRVEWTESIPQIIATREDISKELNQALAKTFIDSDPRVRRTSVMIFNKVPVTEIWKNITNKAIYTSLLHLAREKHKEVRELCINTMAKFYSNSLNEIERTYQNKEIWEIIDTIPSTLYNLYYINDLNINEQVDSVIFEYLLPFEPDNDKRVHRLLTVLSHFDKKAFTSFFAFNARQIKISFAISKYIDFSKFLNNQESMSSSQGPIVMNKYNQTLQWLASGLSDSTKAIDALETIKQFNDERIFYLLNACVTNDIPFLTFKNCYNELVSKLQTPGLFKKYNISTGASIMPRDIAKVIQILLFRASPIIYNVSNISVLLNLSNNSDAKQLDLKRRILDDISKVNPTLFKDQIRTLKTIIKDLDDPDAEKNDNLSLEEALKTLYKASKTLKDQVDFDDTFFFTKLYDFAVESKPEITKYATKLIALSPKAEETLKKIKIRILPLDLQKDKYFTSHIIVLMEIFKKFPHVLNDDSTDIISYLIKEVLLSNQVVGDSKKEIDWVEDSLLSDTKYSAIGNKVFTLKLFTNKLRSIAPDVPRDELAESFTEKTMKLFFYLIASGGELISEFNKEFYPTPSNYQTKLRCVAGIQVLKLARISNLNNFIKPSDIIKLINLVEDESLPVRKTFLEQLKDYVANELISIKFLPLVFFTAYEPDVELKTTTKIWINFTFGLKSFKKGTIFERALPRLIHAIAHHPDIVGGLDSEGDAYLNALTTAIDYLLFYFDSIAAQENFSLLYYLSERVKNYQDKLVEDEIDEEEGPQKEEAPKKHRPYGQKMYIIGELSQMILLNLKEKKNWQHSAYPGKLNLPSDLFKPFATVQEAQLSFKTYIPESLTEKIQNNIKAKIGRILHTSQTQRQRLQKRLLAHENNESQKKKKKVHHARSQADDEEGDGDRESDSDDDSYSPSNKNETKKGHENIVMKKLRVRKEVDYKDDEDDDIEMT
